The source of these data is paper PMC10496494.

By UniProt entry, the sequences of proteins in these tests, tags left out. Residues count along the entry.
UniProt P06748, residues 1-290: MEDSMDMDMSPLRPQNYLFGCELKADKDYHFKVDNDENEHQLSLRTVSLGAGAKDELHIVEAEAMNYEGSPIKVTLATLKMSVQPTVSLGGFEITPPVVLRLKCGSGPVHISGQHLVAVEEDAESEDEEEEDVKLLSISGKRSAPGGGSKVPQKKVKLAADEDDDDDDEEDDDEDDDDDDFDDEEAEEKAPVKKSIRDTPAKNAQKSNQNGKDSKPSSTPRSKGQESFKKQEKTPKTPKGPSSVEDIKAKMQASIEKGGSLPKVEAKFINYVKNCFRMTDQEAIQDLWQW

Results are given in words; binding and its absence hold for the method and conditions named. Some entries that bind do so weakly or less than the wild type.

The target of this experiment is NPM1 (human wildtype nucleophosmin, residues 1 to 290), purified recombinant (human) (UniProt P06748). Kind of experiment: SPR; Biacore T200; DDX24^E271K and NPM1, which of them was immobilised is not told in the text (Supplemental Figure 5C-D); CM5 chip, amine coupling; PBS, 0.05% Tween-20, 1% DMSO, pH 7.4, 25 °C; Langmuir 1:1 model; both purified.

B1: DDX24^E271K (p.Glu271Lys), purified recombinant (domain or fragment, UniProt Q9GZR7 28-859)
chain: KWKEVKIDPNMFADGQMDDLVCFEELTDYQLVSPAKNPSSLFSKEAPKRKAQAVSEEEEEEEGKSSSPKKKIKLKKSKNVATEGTSTQKEFEVKDPELEAQGDDMVCDDPEAGEMTSENLVQTAPKKKKNKGKKGLEPSQSTAAKVPKKAKTWIPEVHDQKADVSAWKDLFVPRPVLRALSFLGFSAPTPIQALTLAPAIRDKLDILGAAETGSGKTLAFAIPMIHAVLQWQKRNAAPPPSNTKAPPGETRTEAGAETRSPGKAEAESDALPDDTVIESEALPSDIAAEARAKTGGTVSDQALLFGDDDAGEGPSSLIREKPVPKQNENEEENLDKEQTGNLKQELDDKSATCKAYPKRPLLGLVLTPTRELAVQVKQHIDAVARFTGIKTAILVGGMSTQKQQRMLNRRPEIVVATPGRLWELIKEKHYHLRNLRQLRCLVVDEADRMVEKGHFAELSQLLEMLNDSQYNPKRQTLVFSATLTLVHQAPARILHKKHTKKMDKTAKLDLLMQKIGMRGKPKVIDLTRNEATVETLTETKIHCETDEKDFYLYYFLMQYPGRSLVFANSISCIKRLSGLLKVLDIMPLTLHACMHQKQRLRNLEQFARLEDCVLLATDVAARGLDIPKVQHVIHYQVPRTSEIYVHRSGRTARATNEGLSLMLIGPEDVINFKKIYKTLKKDEDIPLFPVQTKYMDVVKERIRLARQIEKSEYRNFQACLHNSWIEQAAAALEIELEEDMYKGGKADQQEERRRQKQMKVLKKELRHLLSQPLFTESQKTKYPTQSGKPPLLVSAPSKSESALSCLSKQKKKKTKKPKEPQPEQPQPSTSAN
For B1, the binding result is given as “binds”.
